According to patent US10905586B2, “Methods and devices for drug delivery to ocular tissue using microneedle” (Emory University, priority 2006, dated 2021):

Test: Injection of model compound into suprachoroidal space of pig eyes ex vivo with hollow microneedle

For `CCN(CC)c1ccc2c(-c3ccc(S(=O)(=O)O)cc3S(=O)(=O)[O-])c3ccc(=[N+](CC)CC)cc-3oc2c1` [sulforhodamine B, Sulforhodamine B], the “Location of injected solution after infusion” value (pig eye ex vivo, 35 μL, brightfield image) was “just below the sclera and above the choroid in the suprachoroidal space” and the “Volumes able to be injected without leakage” value (pig eyes ex vivo, single hollow microneedle) was “up to 35 μL”.
